Source: ChEMBL document CHEMBL3988442, “University of Dundee, Small-Polar-MMV Screening Library” (2021).

Amino acid sequences for entries named in this document (tags omitted). Residues count along the entry.
UniProt A4I591, 1-473: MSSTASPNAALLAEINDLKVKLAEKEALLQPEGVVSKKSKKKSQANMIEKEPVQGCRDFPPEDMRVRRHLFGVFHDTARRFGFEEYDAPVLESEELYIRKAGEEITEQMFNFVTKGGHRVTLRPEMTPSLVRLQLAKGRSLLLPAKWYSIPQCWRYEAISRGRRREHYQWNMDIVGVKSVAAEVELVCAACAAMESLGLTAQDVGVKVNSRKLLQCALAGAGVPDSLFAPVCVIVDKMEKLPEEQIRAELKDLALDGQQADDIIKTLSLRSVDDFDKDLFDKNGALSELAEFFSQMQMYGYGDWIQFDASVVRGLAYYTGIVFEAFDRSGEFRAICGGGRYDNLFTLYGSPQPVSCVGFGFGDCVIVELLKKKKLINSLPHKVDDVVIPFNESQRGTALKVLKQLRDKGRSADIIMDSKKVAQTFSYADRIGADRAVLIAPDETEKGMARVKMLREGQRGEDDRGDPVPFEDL
UniProt I6X8D2, whole entry: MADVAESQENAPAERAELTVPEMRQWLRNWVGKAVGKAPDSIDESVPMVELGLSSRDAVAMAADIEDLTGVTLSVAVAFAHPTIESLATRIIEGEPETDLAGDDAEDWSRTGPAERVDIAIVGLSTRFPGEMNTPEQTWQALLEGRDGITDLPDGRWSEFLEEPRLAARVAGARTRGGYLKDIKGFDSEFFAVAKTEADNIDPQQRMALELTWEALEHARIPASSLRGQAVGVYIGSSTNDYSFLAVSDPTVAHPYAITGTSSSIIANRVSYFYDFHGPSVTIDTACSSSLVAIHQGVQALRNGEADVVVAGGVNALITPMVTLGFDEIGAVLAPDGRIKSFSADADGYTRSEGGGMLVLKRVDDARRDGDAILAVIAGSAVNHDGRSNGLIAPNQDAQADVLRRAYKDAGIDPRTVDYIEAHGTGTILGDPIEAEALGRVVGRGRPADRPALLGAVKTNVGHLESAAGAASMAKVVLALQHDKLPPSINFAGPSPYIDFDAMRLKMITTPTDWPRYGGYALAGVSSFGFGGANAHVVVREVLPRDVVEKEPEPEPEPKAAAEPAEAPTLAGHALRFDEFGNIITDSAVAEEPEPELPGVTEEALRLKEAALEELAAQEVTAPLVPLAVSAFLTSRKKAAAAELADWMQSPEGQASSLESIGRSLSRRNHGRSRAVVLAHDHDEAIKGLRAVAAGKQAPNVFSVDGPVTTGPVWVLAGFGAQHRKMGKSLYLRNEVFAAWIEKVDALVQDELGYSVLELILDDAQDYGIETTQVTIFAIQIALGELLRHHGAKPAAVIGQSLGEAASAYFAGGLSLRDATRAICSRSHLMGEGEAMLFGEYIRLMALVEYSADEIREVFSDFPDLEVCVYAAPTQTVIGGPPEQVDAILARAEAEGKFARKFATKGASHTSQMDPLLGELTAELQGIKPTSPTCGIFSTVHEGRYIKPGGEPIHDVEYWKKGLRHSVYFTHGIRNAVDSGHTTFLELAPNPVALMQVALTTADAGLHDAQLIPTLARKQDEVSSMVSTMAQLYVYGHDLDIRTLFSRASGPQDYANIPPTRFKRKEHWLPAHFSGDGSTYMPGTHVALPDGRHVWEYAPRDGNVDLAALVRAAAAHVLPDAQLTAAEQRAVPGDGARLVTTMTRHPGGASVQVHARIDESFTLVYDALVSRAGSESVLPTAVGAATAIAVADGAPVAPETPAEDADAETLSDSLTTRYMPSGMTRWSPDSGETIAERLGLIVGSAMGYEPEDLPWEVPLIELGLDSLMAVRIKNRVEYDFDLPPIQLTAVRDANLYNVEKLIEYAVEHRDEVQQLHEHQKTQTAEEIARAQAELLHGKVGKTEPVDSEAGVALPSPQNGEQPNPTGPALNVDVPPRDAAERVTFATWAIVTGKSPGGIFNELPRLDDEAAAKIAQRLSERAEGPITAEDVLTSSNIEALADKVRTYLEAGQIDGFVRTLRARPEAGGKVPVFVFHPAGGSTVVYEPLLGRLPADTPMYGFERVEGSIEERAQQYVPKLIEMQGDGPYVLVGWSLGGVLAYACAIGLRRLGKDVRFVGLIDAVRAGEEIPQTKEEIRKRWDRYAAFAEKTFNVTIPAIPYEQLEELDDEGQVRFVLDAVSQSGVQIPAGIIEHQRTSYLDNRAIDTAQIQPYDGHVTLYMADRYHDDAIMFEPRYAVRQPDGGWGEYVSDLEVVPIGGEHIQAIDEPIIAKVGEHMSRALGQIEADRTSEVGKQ

Leishmania in macrophages: 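Cell assay of Leishmania donovani living inside macrophages; the read-out is not stated. Tested at 30 µM. Higher reads as stronger inhibition (inferred: compounds with an IC50 in retests scored well above the rest). About 69,000 compounds were tested under these conditions; 1.5% (about 1,000) showed 50% or more at least once.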
LiHisRS: 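Enzyme assay of histidyl-tRNA synthetase; the read-out is not stated. Target: Histidine-tRNA ligase, Leishmania infantum (UniProt A4I591). Tested at 30 µM. The record gives no direction; compounds that gave an IC50 in retests scored well above the rest, so higher reads as stronger inhibition. The assay is labelled LdHisRS but filed under L. infantum. Of about 69,000 compounds tested this way, about 410 (0.6%) reached 50% or more in at least one test.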
Pks13 thioesterase: 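Polyketide synthase Pks13, Mycobacterium tuberculosis (UniProt I6X8D2). Enzyme assay of the thioesterase domain of polyketide synthase 13; the read-out is not stated. Compounds at 30 µM. The record gives no direction; the compounds picked for IC50 retests had high values, so higher reads as stronger inhibition. Of about 67,000 compounds tested this way, about 300 (0.46%) reached 50% or more in at least one test.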

Each number is a percent effect as filed. The record does not define 0% and 100%; most values in the screen are far below 50% and negative numbers occur (in some assays of this library far below -100). This is an unselected part of the compounds tested. A dash means the value is not listed here; it may have been measured.

compound,Leishmania in macrophages,LiHisRS,Pks13 thioesterase
Cn1cc(CC(=O)N2CCOC(c3nc(C(C)(C)C)n[nH]3)C2)cn1 (centres undefined),6.281,28.77,-29.49
Cn1cc(C(=O)CC2CCCN2C(=O)c2ccn3ccnc3c2)cn1 (centres undefined),9.76,8.791,1.07
CC(NC(=O)N1CCCN(CC(F)F)CC1)c1ccco1 (centres undefined),27.36,6.667,-13.6
N#Cc1ccnc(N2CCN(C(=O)NC3CCS(=O)(=O)C3)CC2)c1 (centres undefined),28.11,21.54,4.278
Cc1ccccc1CNC(C)c1ccc(OCC(=O)NC2CC2)cc1 (centres undefined),16.2,0.8696,-12.89
COC1CC2(CCN(Cc3nccn3C)CC2)C1,-,22.81,-23.14
Cn1nc(-c2ccc(F)cc2)cc1C(=O)NCCn1ccnc1,-0.7024,8.511,-64.46
CC(C)CNC(=O)c1nc2c(s1)CCN(C(=O)c1ccc(Cl)cc1)CC2,24.4,25.71,-33.03
O=C(O)C(F)(F)F.c1coc(CN2Cc3ccnn3CC(COCC3CC3)C2)c1 (centres undefined),2.45,-,-
COc1cc(C(C)=O)ccc1OC12CCCN(CC1)C2 (centres undefined),-21.06,3.297,-13.23
O=C(COC1CCCC1)NCCc1noc(-c2ccccn2)n1,-7.311,9.735,-12.12
Cc1cc(CN2CC[C@H]3C[C@@H](C)O[C@@H]3C2)no1,-,8.257,18.6
Cc1cc2ccccc2n1CCC(=O)NCc1ncc[nH]1,13.93,27.78,-21.83
CCCn1nccc1C(=O)N1CCCC(C(=O)CCc2ccccc2)C1 (centres undefined),13.75,16.13,-27.6
CC(=O)N1[C@H](CN(C)C)C[C@@H]2CN(C(=O)Cc3cccs3)CC[C@@H]21,-,21.1,-35.02
COc1c(CNCCNC(=O)c2cccc(C)c2)c(C)nn1C.Cl,35.82,-,-
CC(C)C(=O)N1CCN(C(=O)c2cc(C(C)C)on2)[C@H]2CS(=O)(=O)C[C@H]21,-,14.42,-12.5
CCOc1ccc(C#N)cc1NCc1cc(C)on1,-29.92,14.89,-19.85
COCCCNC(=O)c1cc(C(C)C)nc(N2CCCCCC2)n1,-18.31,8.621,1.17
N#Cc1c[nH]nc1NCc1ccc2c(c1)OCO2,43.81,1.124,-2.954
CNC(=O)CC1CC2(CCN(CC3CC3)CC2)Oc2ccccc21.O=C(O)C(F)(F)F (centres undefined),4.328,-,-
Cl.O=C(CCC1CCCC1)N1CCCC(c2ncc3c(n2)CCNC3)C1 (centres undefined),7.021,-,-
N#Cc1cccc(CN2C[C@@H](NC(=O)C3CC3)[C@H]3OCCC[C@H]32)c1,-,-2.752,-14.58
O=C(O)C(F)(F)F.O=C(O)C(F)(F)F.[H][C@@]12CN(CCOCC)C[C@H](C(=O)Nc3cccnc3)[C@]1([H])CCO2,-3.546,-,-
CN(C)C(=O)N1CCC2(CCC(C(=O)N3CCCC3)O2)CC1 (centres undefined),0.545,9.709,-18.47
CCS(=O)(=O)N1Cc2ccccc2CC1C(=O)OCc1cc(C)no1 (centres undefined),9.872,6.667,5.408
c1ccc(NCc2ccsc2)c(Cn2cncn2)c1,-5.832,7.018,-12.35
Cc1nc(CN2CCOC(CNc3cccnn3)C2)oc1C (centres undefined),0.9797,7.143,-10.53
c1cnc(N2CCO[C@H]3CN(Cc4csnn4)C[C@H]32)nc1,-,11.76,-7.627
CN(CC(=O)N1CCCC1c1cnn(C)c1)c1ccc(Cl)cn1 (centres undefined),11.86,7.576,-9.242
CC[C@H](C)[C@@H](CO)NC(C)Cc1ccccc1F (some centres undefined),2.411,12.24,-18.59
O=C(O)[C@]12CCCN(Cc3ccsc3)C[C@H]1CN(c1ccccn1)C2,-,1.754,27.64
O=C1C[C@@H]2[C@H](CCN2Cc2ccco2)N1c1ccsc1,-,-2.521,28.59
N#Cc1c(SCCN2CCCCCC2)sc2c(O)cc(O)nc12,9.403,24.74,25
O=C(NCCNc1ncccn1)C1CC(=O)N(CC2CC2)C1 (centres undefined),19.94,-2.632,-16.58
O=C(CCc1nc(C2CC2)no1)c1ccc2c(c1)OCCO2,28.61,14.63,4.275
COCCN1CCCC(c2ncc(C(=O)N(C)C)c(C)n2)C1 (centres undefined),-9.482,5.674,1.94
CN1C[C@@H](n2cnc(-c3ccccc3)c2-c2nccn2C)C[C@H]1C(=O)O,34.04,9.948,-36.2
CN(C(=O)NCc1nccn1CCc1ccccc1)C1CCC1,19.84,12.5,-25.97
Cc1nc(CNC(=O)Nc2ccc(N(C)C)nc2)sc1C,21.01,10.96,-14.42
O=C(NC1CC1)[C@@H]1CCO[C@@H]2CCN(CC3CCC3)C[C@@H]21,-,20,-8.395
CSc1nnc(C2CCN(C(=O)N3CCCC3)CC2)n1C(C)C,14.33,-1.439,0.01777
CN(C)c1ccc(NC(=O)NCC2CCOC2)cn1 (centres undefined),32.24,32.41,12.56
O=C([C@H]1CC[C@@H]2[C@@H](CCN2Cc2nccs2)O1)N1CCCCO1,-,22.86,-18.6
Cc1noc(Cl)c1CCC(=O)N1CCC(CC(N)=O)CC1,4.696,13.64,-12.04
O=C(CCc1cccc(Cl)c1Cl)N1CCOCC1c1ncon1 (centres undefined),22.81,5.455,-4.235
COc1cccc([C@H]2CN(C(=O)c3noc4c3CCCC4)C[C@@H]2N)c1,5.924,10.83,-1.86
O=C(O)C(F)(F)F.[H][C@@]12OCCN(C(=O)c3ccc(C)o3)[C@@]1([H])CC[C@@H]2OCc1ccccn1,-19.6,-,-
Cc1ccc(NC(=O)NC(C)Cn2cccn2)cc1 (centres undefined),5.017,15.15,-32.35
CN(C)CCOCC1CN(Cc2ccsc2)Cc2ccnn2C1 (centres undefined),-,7.843,-4.864
CCOC(=O)N1CCN(c2nc(NC)c3ccccc3n2)CC1,1.786,5.825,-24.64
C1CC(CO[C@@H]2CC[C@H]3[C@H]2OCCN3CC2CCOCC2)CCO1,-,19.75,6.328
CCN1CCOCC12CCN(C(=O)C1CCC1)CC2,-,10.09,-34.56
[H][C@@]12C[C@H](C(=O)NCc3ccccc3)[C@@]([H])(CN(C(=O)NCC(C)C)C1)O2,18.9,-,-
CC(NC(=O)CCn1cncn1)c1nnc2n1CCCCC2 (centres undefined),2.635,12.5,-4.996
CCN1CCC(CNS(=O)(=O)N2CCc3ccccc3C2)C1 (centres undefined),7.334,20,-9.422
[H][C@]12CCCCN1CCC[C@H]2Cn1ccnc1-c1nccn1C,38.83,-,-
O=C(CSC1CCc2ccccc2NC1=O)Nc1ccc(CCO)cc1 (centres undefined),19.03,20.78,-39.73
COc1cccn(CC(=O)N(C)CCCOc2c(C)cccc2C)c1=O,-35.49,110.4,27.26

Some entries from above, unchanged:

- COc1cccn(CC(=O)N(C)CCCOc2c(C)cccc2C)c1=O | Leishmania in macrophages: -35.49%; LiHisRS: 110.4%; Pks13 thioesterase: 27.26%
- O=C(CCc1nc(C2CC2)no1)c1ccc2c(c1)OCCO2 | Leishmania in macrophages: 28.61%; LiHisRS: 14.63%; Pks13 thioesterase: 4.275%
- N#Cc1ccnc(N2CCN(C(=O)NC3CCS(=O)(=O)C3)CC2)c1 (centres undefined) | Leishmania in macrophages: 28.11%; LiHisRS: 21.54%; Pks13 thioesterase: 4.278%
- CC(C)CNC(=O)c1nc2c(s1)CCN(C(=O)c1ccc(Cl)cc1)CC2 | Leishmania in macrophages: 24.4%; LiHisRS: 25.71%; Pks13 thioesterase: -33.03%
- COC1CC2(CCN(Cc3nccn3C)CC2)C1 | LiHisRS: 22.81%; Pks13 thioesterase: -23.14%
- Cl.O=C(CCC1CCCC1)N1CCCC(c2ncc3c(n2)CCNC3)C1 (centres undefined) | Leishmania in macrophages: 7.021%